This is an account of results in PubChem BioAssay AID254 (DTP/NCI, 2004).

For the test, the system named is L1210 leukemia iv in BDF1 mice, survival T/C. Put plainly: NCI In Vivo Anticancer Drug Screen. Data for tumor model L1210 Leukemia (intravenous) in B6D2F1 (BDF1) mice. Particulars: higher T/C = longer survival. Here is the method:
The antitumor activity of compounds was measured in mice bearing transplantable tumors. Survival or tumor size were measured and the results are expressed as the measurement made in the treated group (T) divided by the measurement made in the vehicle treated control group (C). The tumor model used in this assay is L1210 Leukemia (intravenous) in B6D2F1 (BDF1) mice

The list shows only some results of the screen, not a fair sample: it gathers tests that were run many times, whatever their T/C, doses with no T/C, and many T/C values between a quarter and a half above the control. Other doses and runs of a compound stand elsewhere. T/C gives the treated animals as a percentage of the vehicle group. Some doses have a count of surviving animals in place of a T/C: the source holds a T/C of zero for them, seemingly a mark for toxic or unscored doses. Some survivor counts are full or nearly so, which does not show that the dose was tolerated: the source hardly ever lists a survival T/C far under the control, and the zero likely stands for such cases as well. Counts of survivors are from the toxicity check (mostly the fifth day) where no day follows; animals may have died later. Schedule codes are those of the source, taken here to give the interval after Q, in days (D) or hours (H), and the number of doses after X. For survival time, this PubChem deposit counts one and a half times the control or more as active, and values a quarter to a half above the control carry no call in these data; other NCI protocols may use other cut-offs. Some entries hold several experiments; the values are given in rising order.

Turning to `CN(C)/N=N/c1nc[nH]c1C(N)=O`, the T/C is, setting by setting: (T/C endpoint: mean survival time, dose: 165.0 mg/kg/injection, schedule: Q01DX001 (ip), vehicle: carboxymethylcellulose (CMC), evaluated on day 3) 99 and 103 % of control; (T/C endpoint: mean survival time, dose: 165.0 mg/kg/injection, schedule: Q01DX001 (ip), vehicle: carboxymethylcellulose (CMC), evaluated on day 60) 100 and 104 % of control; (T/C endpoint: mean survival time, dose: 270.0 mg/kg/injection, schedule: Q01DX001 (ip), vehicle: carboxymethylcellulose (CMC), evaluated on day 3) 125 % of control; (T/C endpoint: mean survival time, dose: 270.0 mg/kg/injection, schedule: Q01DX001 (ip), vehicle: carboxymethylcellulose (CMC), evaluated on day 60) 125 % of control; (T/C endpoint: mean survival time, dose: 337.0 mg/kg/injection, schedule: Q01DX001 (ip), vehicle: carboxymethylcellulose (CMC), evaluated on day 3) 116, 123, 125 % of control; (T/C endpoint: mean survival time, dose: 337.0 mg/kg/injection, schedule: Q01DX001 (ip), vehicle: carboxymethylcellulose (CMC), evaluated on day 60) 116, 124, 125 % of control. Further, the T/C is, setting by setting: (T/C endpoint: mean survival time, dose: 400.0 mg/kg/injection, schedule: Q01DX001 (ip), vehicle: carboxymethylcellulose (CMC), evaluated on day 3) 147 % of control; (T/C endpoint: mean survival time, dose: 400.0 mg/kg/injection, schedule: Q01DX001 (ip), vehicle: carboxymethylcellulose (CMC), evaluated on day 60) 147 % of control; (T/C endpoint: mean survival time, dose: 506.0 mg/kg/injection, schedule: Q01DX001 (ip), vehicle: carboxymethylcellulose (CMC), evaluated on day 3) 123, 137, 142 % of control; (T/C endpoint: mean survival time, dose: 506.0 mg/kg/injection, schedule: Q01DX001 (ip), vehicle: carboxymethylcellulose (CMC), evaluated on day 60) 123, 138, 142 % of control; (T/C endpoint: mean survival time, dose: 675.0 mg/kg/injection, schedule: Q01DX001 (ip), vehicle: carboxymethylcellulose (CMC), evaluated on day 3) 122, 147, 174 % of control; (T/C endpoint: mean survival time, dose: 675.0 mg/kg/injection, schedule: Q01DX001 (ip), vehicle: carboxymethylcellulose (CMC), evaluated on day 60) 122, 148, 174 % of control. The T/C is, setting by setting: (T/C endpoint: mean survival time, dose: 844.0 mg/kg/injection, schedule: Q01DX001 (ip), vehicle: carboxymethylcellulose (CMC), evaluated on day 3) 163, 167, 175 % of control; (T/C endpoint: mean survival time, dose: 844.0 mg/kg/injection, schedule: Q01DX001 (ip), vehicle: carboxymethylcellulose (CMC), evaluated on day 60) 164, 167, 175 % of control. Also, the survivor count (T/C endpoint: mean survival time, dose: 1350.0 mg/kg/injection, schedule: Q01DX001 (ip), vehicle: carboxymethylcellulose (CMC)) is listed as 5 of 10.

As to `CCOC(=O)C1CCC(NC(=O)N(CCCl)N=O)CC1` (stereo not drawn), the T/C (T/C endpoint: mean survival time, dose: 8.0 mg/kg/injection, schedule: Q01DX001 (ip), vehicle: other) was 129 % of control. In addition, the survivor count (T/C endpoint: mean survival time, dose: 30.0 mg/kg/injection, schedule: Q04DX004 (ip), vehicle: gum acacia) is on record as 10 of 10.

On to `O=NN(CCCl)C(=O)NC1CCCCC1`, for which the T/C runs as follows: (T/C endpoint: mean survival time, dose: 7.0 mg/kg/injection, schedule: Q01DX001 (ip), vehicle: Klucel (hydroxypropylcellulose) (HPC), evaluated on day 3) 141 and 145 % of control; (T/C endpoint: mean survival time, dose: 7.0 mg/kg/injection, schedule: Q01DX001 (ip), vehicle: Klucel (hydroxypropylcellulose) (HPC), evaluated on day 60) 141 and 146 % of control; (T/C endpoint: mean survival time, dose: 10.0 mg/kg/injection, schedule: Q01DX001 (ip), vehicle: carboxymethylcellulose (CMC)) 132 and 134 % of control; (T/C endpoint: mean survival time, dose: 14.0 mg/kg/injection, schedule: Q01DX001 (ip), vehicle: Klucel (hydroxypropylcellulose) (HPC), evaluated on day 3) 145, 160, 176, 202, 235, 242 % of control; (T/C endpoint: mean survival time, dose: 14.0 mg/kg/injection, schedule: Q01DX001 (ip), vehicle: Klucel (hydroxypropylcellulose) (HPC), evaluated on day 60) 160, 176, 202, 235, 242 % of control; (T/C endpoint: mean survival time, dose: 16.6 mg/kg/injection, schedule: Q01DX001 (ip), vehicle: carboxymethylcellulose (CMC)) 147 % of control. For the same compound, the T/C is, setting by setting: (T/C endpoint: mean survival time, dose: 21.0 mg/kg/injection, schedule: Q01DX001 (ip), vehicle: Klucel (hydroxypropylcellulose) (HPC), evaluated on day 3) 197 and 281 % of control; (T/C endpoint: mean survival time, dose: 21.0 mg/kg/injection, schedule: Q01DX001 (ip), vehicle: Klucel (hydroxypropylcellulose) (HPC), evaluated on day 60) 198 and 281 % of control; (T/C endpoint: mean survival time, dose: 25.0 mg/kg/injection, schedule: Q01DX001 (ip), vehicle: carboxymethylcellulose (CMC), evaluated on day 45) 218, 247, 309 % of control; (T/C endpoint: mean survival time, dose: 25.0 mg/kg/injection, schedule: Q01DX001 (ip), vehicle: carboxymethylcellulose (CMC), evaluated on day 60) 302 % of control; (T/C endpoint: mean survival time, dose: 28.0 mg/kg/injection, schedule: Q01DX001 (ip), vehicle: Klucel (hydroxypropylcellulose) (HPC), evaluated on day 3) 264, 265, 270, 342, 854, 875 % of control; (T/C endpoint: mean survival time, dose: 28.0 mg/kg/injection, schedule: Q01DX001 (ip), vehicle: Klucel (hydroxypropylcellulose) (HPC), evaluated on day 60) 265, 270, 342, 854, 875 % of control. Besides, the T/C runs as follows: (T/C endpoint: mean survival time, dose: 43.0 mg/kg/injection, schedule: Q01DX001 (ip), vehicle: Klucel (hydroxypropylcellulose) (HPC), evaluated on day 3) 626, 677, 695, 833, 1170 % of control; (T/C endpoint: mean survival time, dose: 43.0 mg/kg/injection, schedule: Q01DX001 (ip), vehicle: Klucel (hydroxypropylcellulose) (HPC), evaluated on day 60) 170, 626, 677, 695, 834 % of control; (T/C endpoint: mean survival time, dose: 50.0 mg/kg/injection, schedule: Q01DX001 (ip), vehicle: carboxymethylcellulose (CMC), evaluated on day 45) 602, 650, 823 % of control; (T/C endpoint: mean survival time, dose: 50.0 mg/kg/injection, schedule: Q01DX001 (ip), vehicle: carboxymethylcellulose (CMC), evaluated on day 60) 306, 673, 707, 792 % of control; (T/C endpoint: mean survival time, dose: 57.0 mg/kg/injection, schedule: Q01DX001 (ip), vehicle: Klucel (hydroxypropylcellulose) (HPC), evaluated on day 3) 555, 625, 817, 937, 1090 % of control; (T/C endpoint: mean survival time, dose: 57.0 mg/kg/injection, schedule: Q01DX001 (ip), vehicle: Klucel (hydroxypropylcellulose) (HPC), evaluated on day 60) 88, 555, 625, 818, 937 % of control. The T/C (T/C endpoint: mean survival time, dose: 71.0 mg/kg/injection, schedule: Q01DX001 (ip), vehicle: Klucel (hydroxypropylcellulose) (HPC), evaluated on day 3) was 412, 439, 566, 629, 643 % of control and the T/C (T/C endpoint: mean survival time, dose: 71.0 mg/kg/injection, schedule: Q01DX001 (ip), vehicle: Klucel (hydroxypropylcellulose) (HPC), evaluated on day 60) is given as 412, 439, 566, 630, 644 % of control.

In the case of `COc1cccc2c1C(=O)c1c(O)c3c(c(O)c1C2=O)C[C@@](O)(C(C)=O)C[C@@H]3OC1CC(N)C(O)C(C)O1` (stereo partly drawn), the T/C (T/C endpoint: mean survival time, dose: 8.4 mg/kg/injection, schedule: Q04DX003 (iv), vehicle: water, evaluated on day 5) was 134 % of control; the T/C (T/C endpoint: mean survival time, dose: 8.4 mg/kg/injection, schedule: Q04DX003 (iv), vehicle: water, evaluated on day 60) was 134 % of control; the T/C (T/C endpoint: mean survival time, dose: 15.0 mg/kg/injection, schedule: Q01DX001 (iv), vehicle: saline, evaluated on day 5) was 135 % of control; the T/C (T/C endpoint: mean survival time, dose: 15.0 mg/kg/injection, schedule: Q01DX001 (iv), vehicle: saline, evaluated on day 45) is 135 % of control. For the same compound, the survivor count (T/C endpoint: mean survival time, dose: 23.0 mg/kg/injection, schedule: Q04DX003 (iv), vehicle: water) was 7 of 8.

For `CCCCc1ccc2nc(NC(=O)OC)[nH]c2c1`, the survivor count runs as follows: (T/C endpoint: median survival time, dose: 75.0 mg/kg/injection, schedule: Q04DX003 (iv), vehicle: saline with Tween-80) 1 of 7; (T/C endpoint: median survival time, dose: 100.0 mg/kg/injection, schedule: Q04DX003 (iv), vehicle: saline with Tween-80) 0 of 7; (T/C endpoint: median survival time, dose: 150.0 mg/kg/injection, schedule: Q04DX003 (iv), vehicle: saline with Tween-80) 0 of 7.

As for `O=NN(CCCl)C(=O)NC1CSCSC1`, the T/C (T/C endpoint: mean survival time, dose: 4.0 mg/kg/injection, schedule: Q01DX001 (ip), vehicle: other) was 129 % of control. Moreover, for the setting “T/C endpoint: mean survival time, dose: 16.5 mg/kg/injection, schedule: Q04DX004 (ip), vehicle: saline with Tween-80”, the survivor count is on record as 10 of 10.

With `CC(=O)OC1CCC(NC(=O)N(CCF)N=O)CC1` (stereo not drawn), the survivor count is given as 6 of 10 (T/C endpoint: mean survival time, dose: 48.0 mg/kg/injection, schedule: Q01DX001 (oral), vehicle: other); 6 of 10 (T/C endpoint: mean survival time, dose: 54.0 mg/kg/injection, schedule: Q01DX001 (ip), vehicle: other); 2 of 10 (T/C endpoint: mean survival time, dose: 72.0 mg/kg/injection, schedule: Q01DX001 (oral), vehicle: other); 1 of 10 (T/C endpoint: mean survival time, dose: 81.0 mg/kg/injection, schedule: Q01DX001 (ip), vehicle: other); 1 of 10 (T/C endpoint: mean survival time, dose: 108.0 mg/kg/injection, schedule: Q01DX001 (oral), vehicle: other); 0 of 10 (T/C endpoint: mean survival time, dose: 162.0 mg/kg/injection, schedule: Q01DX001 (oral), vehicle: other).
